Results are given in words; binding and its absence hold for the method and conditions named. Binding seen in cells or lysates may run through a third protein. Some results given as binding are weak or reduced against the parent protein; the word gives no strength.

This experiment deals with T1, endogenous MYBBP1A in mouse brain (mouse (endogenous in C57BL mouse brain)) (UniProt Q7TPV4).
T1 sequence: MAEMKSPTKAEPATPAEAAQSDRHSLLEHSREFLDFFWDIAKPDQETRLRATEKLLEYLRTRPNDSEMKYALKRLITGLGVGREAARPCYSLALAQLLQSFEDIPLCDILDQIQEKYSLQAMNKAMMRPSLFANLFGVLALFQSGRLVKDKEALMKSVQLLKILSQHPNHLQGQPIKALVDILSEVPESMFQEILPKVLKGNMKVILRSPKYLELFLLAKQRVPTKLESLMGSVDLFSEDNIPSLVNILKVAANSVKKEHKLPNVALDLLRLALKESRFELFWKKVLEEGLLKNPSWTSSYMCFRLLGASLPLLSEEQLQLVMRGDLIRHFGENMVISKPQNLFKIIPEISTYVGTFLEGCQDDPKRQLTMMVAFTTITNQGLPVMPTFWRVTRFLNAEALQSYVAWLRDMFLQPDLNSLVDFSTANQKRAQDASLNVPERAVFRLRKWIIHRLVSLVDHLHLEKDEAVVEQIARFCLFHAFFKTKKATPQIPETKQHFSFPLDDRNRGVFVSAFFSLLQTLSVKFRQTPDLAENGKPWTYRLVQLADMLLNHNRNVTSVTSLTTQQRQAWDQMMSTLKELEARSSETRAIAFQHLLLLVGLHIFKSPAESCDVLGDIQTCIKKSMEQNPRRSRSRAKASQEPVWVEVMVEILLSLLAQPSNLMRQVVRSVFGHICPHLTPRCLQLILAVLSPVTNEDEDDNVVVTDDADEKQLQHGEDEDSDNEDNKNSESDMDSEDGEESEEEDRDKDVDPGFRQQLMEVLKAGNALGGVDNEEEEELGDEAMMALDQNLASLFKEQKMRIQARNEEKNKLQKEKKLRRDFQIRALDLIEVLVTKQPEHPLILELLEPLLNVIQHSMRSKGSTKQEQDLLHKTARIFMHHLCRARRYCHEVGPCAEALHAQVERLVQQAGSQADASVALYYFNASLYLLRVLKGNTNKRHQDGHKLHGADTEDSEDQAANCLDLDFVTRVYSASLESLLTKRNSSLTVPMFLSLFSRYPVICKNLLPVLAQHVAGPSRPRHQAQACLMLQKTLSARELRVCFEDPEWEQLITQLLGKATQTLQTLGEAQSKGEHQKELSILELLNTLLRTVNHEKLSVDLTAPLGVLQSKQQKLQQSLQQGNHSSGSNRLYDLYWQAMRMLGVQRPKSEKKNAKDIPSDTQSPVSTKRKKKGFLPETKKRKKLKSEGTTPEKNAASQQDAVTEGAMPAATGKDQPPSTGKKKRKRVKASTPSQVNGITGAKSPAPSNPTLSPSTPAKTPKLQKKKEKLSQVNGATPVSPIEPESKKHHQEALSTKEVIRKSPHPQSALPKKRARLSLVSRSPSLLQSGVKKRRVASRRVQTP
Briefly: co-IP; C57BL mouse brain (SN, STR, CTX, CB) homogenized in RIPA buffer; MYBBP1A immunoprecipitated, rabbit IgG as negative control; immunoblot. Background: In western blotting, separated proteins are transferred to a membrane and probed.

B1: endogenous USP29 in mouse brain (enzyme, UniProt Q9ES63 1-869)
chain: MAHLKINGLVQIRSTNRSKHTRASQWKEAVIEIVERKQKVNLVVSFKLEERRRVFQLGDNVTGVVVSGELGLYHLDLTLRDDTSLLIDKLSSADVEHLKSFLDSSTPCESQQPMEPMSSQDDLESSDPFCGEHQEAACGSLNTTPESGTPLSRKMPLSMSNTTGGQKRGEKQGRKRKTEPSSSSAEVNKDIPKENTPDQKKKSRRYYSRNRGGKAEKAVTLREQEKRSNWKLEPAFNSKSYGRANLDGTILPIATCSDDRDVSIFGLEIITHNGVQSLPDPYLNQLKREGFPNLGNTCYMNSILQSVFGIPTFAKDLLTQGIPWEKVSYDDLIMPLSQLLVLKDIRDVEIKGELLTSVKKSISTVADTFSGNEQNDAHEFLSLCLDQLKLNMEKVNAMWDTERRNTCAGSAGTKRFVCPVGANFEFELHSSIICEGCGEATIKTEVSNYLSIDLHHGTKTHPLSIQKSFDLFFTPEKIEHNCEKCKNKNSVLKYTLRRLPRVLIVHLKRYQVTTDLLPVKSEQPVEISKYLNISSHCHENRKLPFPLANTSPDVSQGMMPGIFNQSMLSKKVISESCDPMVLQVGSSVDAEIQSFQIMYEDEDASEEQQQRGLESGSMLEPELVKTENRILRQKTSLATDSMMGDGYSFLPMLCEPLSIQDPGLAEMGLQEVPENPEFKNYEKINIYGKSDGRTNTELSKLYQNHGSRIKGLFLPASLASVSSQEDPEKDLSRSPELQEDDPHSFAFGSDDSKDGEMGDDLQNYRLVSVVSHFGSSPNSGHYVSDVYDFQKQAWLLYSDVQVFESSDPSIQENRLNSGYIFFYMHNEIFEELLKKASECKVLSTSKEEKRDIDYFSTLLNGLTYILEEF
For B1, the binding result is recorded as “binds”.

(Values after paper PMC7019889.)
